PubChem BioAssay AID504774 – Drosophila RNAi Screening Center, 2011
In all, the deposit lists about 23,000 reagents; shown is a random part of those that have a named target and a result. 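Values are quantile-normalised luminescence on an arbitrary scale; higher means more cells surviving MMS.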 Further read-outs or replicates are left out here.

Test: 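Genes required for cells to withstand methyl methanesulphonate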 (primary screen)
Cell system: Drosophila Kc167 cells
Knock-down reagent: long dsRNA against Drosophila genes, about 0.25 µg dsRNA per well
Time to read-out: about 6 days: 3 days knock-down, then 3 days with or without MMS
Challenge: methyl methanesulphonate 0.004% (w/v) for 3 days after knock-down
Read-out: 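ATP-dependent luminescence as a measure of live cells in MMS-exposed wells, quantile normalised within each plate, with replicate values also given as a mean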
Reading the numbers: mean viability with MMS and viability with MMS: higher = more surviving cells after MMS

CG3764 [DRSC10375] | mean viability with MMS: 3.55e6; viability with MMS, replicate 1: 4.04e6
Obsc (Obscurin) [DRSC04301] | mean viability with MMS: 1.92e6; viability with MMS, replicate 1: 4.08e6
Obsc (Obscurin) [DRSC04302] | mean viability with MMS: 3.44e6; viability with MMS, replicate 1: 4.08e6
Obsc (Obscurin) [DRSC04303] | mean viability with MMS: 3.45e6; viability with MMS, replicate 1: 3.84e6
Obsc (Obscurin) [DRSC04430] | mean viability with MMS: 3.31e6; viability with MMS, replicate 1: 3.63e6
Obsc (Obscurin) [DRSC22422] | mean viability with MMS: 3.75e6; viability with MMS, replicate 1: 4.20e6
Eno (Enolase) [DRSC00750] | mean viability with MMS: 3.22e6; viability with MMS, replicate 1: 3.60e6
ND-23 (NADH dehydrogenase (ubiquinone) 23 kDa subunit) [DRSC15526] | mean viability with MMS: 3.44e6; viability with MMS, replicate 1: 3.90e6
Hdc (Histidine decarboxylase) [DRSC07439] | mean viability with MMS: 3.62e6; viability with MMS, replicate 1: 4.17e6
sip1 (septin interacting protein 1) [DRSC03609] | mean viability with MMS: 3.30e6; viability with MMS, replicate 1: 3.58e6
sip1 (septin interacting protein 1) [DRSC22648] | mean viability with MMS: 3.37e6; viability with MMS, replicate 1: 3.88e6
CPT2 (Carnitine palmitoyltransferase 2) [DRSC08553] | mean viability with MMS: 3.26e6; viability with MMS, replicate 1: 3.77e6
aln (allnighter) [DRSC08240] | mean viability with MMS: 3.53e6; viability with MMS, replicate 1: 3.96e6
CG10126 [DRSC14191] | mean viability with MMS: 3.90e6; viability with MMS, replicate 1: 4.32e6
CG15118 [DRSC06540] | mean viability with MMS: 3.60e6; viability with MMS, replicate 1: 4.10e6
CG15458 [DRSC20529] | mean viability with MMS: 3.58e6; viability with MMS, replicate 1: 4.03e6
Vha100-5 (Vacuolar H[+] ATPase 100kD subunit 5) [DRSC02175] | mean viability with MMS: 3.45e6; viability with MMS, replicate 1: 4.03e6
pico [DRSC19430] | mean viability with MMS: 3.59e6; viability with MMS, replicate 1: 4.16e6
Yp1 (Yolk protein 1) [DRSC18731] | mean viability with MMS: 3.33e6; viability with MMS, replicate 1: 3.81e6
Mcad (Medium-chain acyl-CoA dehydrogenase) [DRSC09871] | mean viability with MMS: 3.54e6; viability with MMS, replicate 1: 4.02e6
CG18324 [DRSC06721] | mean viability with MMS: 3.64e6; viability with MMS, replicate 1: 4.17e6
gdrd (goddard) [DRSC10020] | mean viability with MMS: 3.50e6; viability with MMS, replicate 1: 4.08e6
Kr (Kruppel) [DRSC04622] | mean viability with MMS: 3.29e6; viability with MMS, replicate 1: 3.61e6

7 entries from above, showing only “mean viability with MMS”.
CG15118 [DRSC06540]	3.60e6
CG15458 [DRSC20529]	3.58e6
Vha100-5 (Vacuolar H[+] ATPase 100kD subunit 5) [DRSC02175]	3.45e6
pico [DRSC19430]	3.59e6
Yp1 (Yolk protein 1) [DRSC18731]	3.33e6
Mcad (Medium-chain acyl-CoA dehydrogenase) [DRSC09871]	3.54e6
CG18324 [DRSC06721]	3.64e6

Continued.
RpL13 (Ribosomal protein L13) [DRSC03416] | mean viability with MMS: 1.15e6; viability with MMS, replicate 1: 3.55e6
CG13070 [DRSC09953] | mean viability with MMS: 3.51e6; viability with MMS, replicate 1: 3.99e6
TTLL6A (Tubulin tyrosine ligase-like 6A) [DRSC06618] | mean viability with MMS: 3.65e6; viability with MMS, replicate 1: 4.15e6
CG12783 [DRSC14538] | mean viability with MMS: 3.42e6; viability with MMS, replicate 1: 3.91e6
dpr18 (defective proboscis extension response 18) [DRSC19606] | mean viability with MMS: 3.54e6; viability with MMS, replicate 1: 4.04e6
CG8319 [DRSC16407] | mean viability with MMS: 3.43e6; viability with MMS, replicate 1: 3.93e6
CG34347 [DRSC14047] | mean viability with MMS: 3.51e6; viability with MMS, replicate 1: 4.04e6
CG34347 [DRSC14305] | mean viability with MMS: 3.32e6; viability with MMS, replicate 1: 3.74e6
CG34347 [DRSC15104] | mean viability with MMS: 3.20e6; viability with MMS, replicate 1: 3.60e6
CG34347 [DRSC15105] | mean viability with MMS: 7.24e5; viability with MMS, replicate 1: 3.42e6
CG34347 [DRSC23044] | mean viability with MMS: 3.37e6; viability with MMS, replicate 1: 3.90e6
CG15382 [DRSC00397] | mean viability with MMS: 3.38e6; viability with MMS, replicate 1: 3.84e6
CG32756 [DRSC22505] | mean viability with MMS: 3.46e6; viability with MMS, replicate 1: 3.94e6
CG32756 [DRSC23271] | mean viability with MMS: 3.67e6; viability with MMS, replicate 1: 4.12e6
CG5386 [DRSC15788] | mean viability with MMS: 3.15e6; viability with MMS, replicate 1: 3.66e6
CG13999 [DRSC02331] | mean viability with MMS: 3.63e6; viability with MMS, replicate 1: 4.08e6
Idgf3 (Imaginal disc growth factor 3) [DRSC03351] | mean viability with MMS: 3.62e6; viability with MMS, replicate 1: 4.05e6
CG34244 [DRSC09304] | mean viability with MMS: 3.67e6; viability with MMS, replicate 1: 4.27e6
mspo (M-spondin) [DRSC07652] | mean viability with MMS: 3.51e6; viability with MMS, replicate 1: 4.03e6
Cyp9h1 (Cytochrome P450 9h1) [DRSC07391] | mean viability with MMS: 3.69e6; viability with MMS, replicate 1: 3.98e6
CG12321 [DRSC14499] | mean viability with MMS: 3.66e6; viability with MMS, replicate 1: 4.08e6
CG17841 [DRSC17737] | mean viability with MMS: 3.50e6; viability with MMS, replicate 1: 3.93e6
